Experiment [1] concerns the target T1, GFP-tagged FBA1 (Saccharomyces cerevisiae) (UniProt P14540).
T1 sequence (looked up): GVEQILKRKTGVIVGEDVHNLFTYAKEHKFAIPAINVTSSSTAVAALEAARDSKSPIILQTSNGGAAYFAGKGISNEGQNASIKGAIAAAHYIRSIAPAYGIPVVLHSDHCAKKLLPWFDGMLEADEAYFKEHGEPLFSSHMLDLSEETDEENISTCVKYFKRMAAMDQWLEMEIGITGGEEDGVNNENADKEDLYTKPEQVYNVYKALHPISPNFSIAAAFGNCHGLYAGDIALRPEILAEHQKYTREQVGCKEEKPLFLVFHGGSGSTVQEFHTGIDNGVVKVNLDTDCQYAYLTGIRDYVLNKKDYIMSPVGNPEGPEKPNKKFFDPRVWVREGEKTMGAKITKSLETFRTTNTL
Kind of experiment: co-IP, Nb on NHS-agarose beads, lysate of GFP-fusion yeast strain, SDS-PAGE, anti-GFP Western blot, mass spectrometry.

Experiment [2] has as its target T2, FBA1 (native, from EBY100 lysate) (Saccharomyces cerevisiae) (UniProt P14540).
T2 sequence (looked up): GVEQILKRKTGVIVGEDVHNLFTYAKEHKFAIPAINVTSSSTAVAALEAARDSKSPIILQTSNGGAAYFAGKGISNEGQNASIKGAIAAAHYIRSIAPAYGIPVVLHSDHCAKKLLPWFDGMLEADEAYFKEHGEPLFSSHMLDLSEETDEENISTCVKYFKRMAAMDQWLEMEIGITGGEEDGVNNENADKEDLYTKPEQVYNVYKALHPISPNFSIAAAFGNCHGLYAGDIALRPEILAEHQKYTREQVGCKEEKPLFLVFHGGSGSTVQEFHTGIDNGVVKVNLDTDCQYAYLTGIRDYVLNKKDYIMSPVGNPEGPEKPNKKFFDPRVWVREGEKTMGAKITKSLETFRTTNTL
The experiment in a line: co-IP, Nb on NHS-agarose beads, EBY100 yeast lysate, SDS-PAGE, band identified by mass spectrometry.

In patent publication US20240287501A1 one finds binding data, which are given here for 1 molecule.

These are yes or no findings as the source states them, for the method shown. In cells and extracts the contact can be indirect. Here binding means that the protein was enriched with, or labelled near, the bait; the list need not be complete. Sequences can lack the tags named with a protein.

B1: CA17443 (VHH)
VHH: QVQLVESGGGSVQPGGSLRLSCAASGNILRIYSMGWSRQAPGKQRELVASITRAGSTRYADSVKGRFTISRDSTNNMVYLQMNSLEPEDTAVYFCNANPVYDGSAGYWGQGTQVTVSS
Take B1: the binding result in experiment [1] and in experiment [2] was “binds” in each case.
